This is an account of results in article PMC8915576 (Frontiers in Pain Research, 2021).

By UniProt entry, the sequences of proteins in these tests, tags left out.
UniProt P42866, whole entry: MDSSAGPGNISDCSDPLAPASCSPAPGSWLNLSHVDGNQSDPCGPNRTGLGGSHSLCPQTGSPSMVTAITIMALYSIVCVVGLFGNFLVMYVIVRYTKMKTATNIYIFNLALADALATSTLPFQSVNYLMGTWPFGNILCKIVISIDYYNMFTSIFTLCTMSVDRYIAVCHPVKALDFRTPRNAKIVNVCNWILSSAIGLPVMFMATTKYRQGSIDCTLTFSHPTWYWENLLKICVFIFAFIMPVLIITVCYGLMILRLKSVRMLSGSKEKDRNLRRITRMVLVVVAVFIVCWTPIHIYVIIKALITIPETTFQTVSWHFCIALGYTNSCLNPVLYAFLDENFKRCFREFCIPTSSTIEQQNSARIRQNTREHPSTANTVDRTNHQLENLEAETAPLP
UniProt P32121, whole entry: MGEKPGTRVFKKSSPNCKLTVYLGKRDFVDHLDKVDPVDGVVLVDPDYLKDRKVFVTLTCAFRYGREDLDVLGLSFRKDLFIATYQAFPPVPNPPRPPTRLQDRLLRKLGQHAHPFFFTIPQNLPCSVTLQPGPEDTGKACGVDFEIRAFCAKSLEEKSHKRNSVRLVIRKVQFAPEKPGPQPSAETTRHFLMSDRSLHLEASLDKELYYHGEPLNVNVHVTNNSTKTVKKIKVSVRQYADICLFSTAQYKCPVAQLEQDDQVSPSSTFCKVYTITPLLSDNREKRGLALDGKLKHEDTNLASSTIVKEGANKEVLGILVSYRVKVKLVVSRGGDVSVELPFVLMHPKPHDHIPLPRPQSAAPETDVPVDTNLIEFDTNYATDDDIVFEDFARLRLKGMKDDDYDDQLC

This test deals with mMOR-Venus (mu opioid receptor, Venus-tagged) (mouse (from the label mMOR)) (UniProt P42866). The experiment in a line: FRET or BRET; live HEK293 cells co-transfected with mMOR-Venus (acceptor) and Renilla Luciferase8-tagged β-arrestin-1, β-arrestin-2 or Gαi (donor; Gαi with untagged Gβγ fusion); agonist added at 0 nM-100 μM (DAMGO, NKTR-181, oxycodone, morphine, fentanyl); coelenterazine h 4.5 μM; 30°C; netBRET as percent of the maximum DAMGO response, four-parameter fit.

Results are given in words; binding and its absence hold for the method and conditions named. In cells and extracts the contact can be indirect. Some entries that bind do so weakly or less than the wild type.

On to “β-arrestin-2-Renilla Luciferase8 (from UniProt P32121 1-409)”, for which the binding result is “binds”.
